Results on two molecules are retold here after patent US20080213277A1.

Results are given in words; binding and its absence hold for the method and conditions named. Some binding calls cover weakened binding; strength is not graded here.

In assay [1] the target is T1, recombinant human prohepcidin (SEQ ID NO: 102) (human).
T1 sequence: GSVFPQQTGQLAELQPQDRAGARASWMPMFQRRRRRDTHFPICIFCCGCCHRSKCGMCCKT
The assay is described as follows: sandwich immunoassay: Ab2.7 capture, biotinylated rabbit anti-prohepcidin polyclonal detection, prohepcidin standard titrated after 60 min at 25 C in the named buffer or serum.

For assay [2], the target named is T2, hepcidin 20 (SEQ ID NO: 96) (human).
T2 sequence (peptide): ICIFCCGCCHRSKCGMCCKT
The assay is described as follows: BIAcore solution competition, grade interpreted from Table 6 (++++ = 100% inhibition by the solution form).

B1: murine anti-human hepcidin monoclonal antibody 2.7 (antibody, V domains shown)
VH: QIQLVQSGPELKKPGETVKISCKASGYTFTTYGMSWVKQAPGKGLKWMGWINTYSGVPTYADDFKGRFAFSLETSASTAYLQINNLKNEDTATYFCGRDHYYGEVAYWGQGTLVTVSA
VL: DIVLTQSPASLAVSLGQRATISCRASESVDSYGNSFMHWYQQKPGQPPKLLIYRASNLESGIPARFSGSGSRTDFTLTINPVEADDVATYYCHQSNEEYTFGGGTKLEIK
Turning to B1, in assay [1], the binding result is on record as “binds”.

B2: rat anti-human hepcidin monoclonal antibody R9 (antibody, V domains shown)
VH: QVTLKESGPGILQPSQTLSLTCSFSGFSLSTSGICVSWIRQPSGKGLEWLATICWEDSKGYNPSLKNRLTISKDTSNNQAFLKITSVDTADTAIYYCARPLNYGGYSELELDYWGQGVMVTVSS
VL: DIQMTQSPSLLSASVGDRVTLSCKASQNIYKYLNWYQQKLGEAPKLLIYYTNSLQTGIPSRFSGSGSGTDFTLTISSLQPEDVATYYCYQYNSGPTFGAGTKLELK
Turning to B2, the binding result in assay [2] is “binds”.
